From patent US20070112018A1, “Treatment of peripheral arterial occlusive disease” (priority 2005, published 2007)
At least one read-out could not be matched to a standard name with certainty.

Experiment: Tissue distribution in rats after a single oral dose (Study 6510-109)
Assay type: in vivo, rat
Conditions: post-dose
Description: Distribution to the majority of tissues was higher than observed plasma levels.
In rats and dogs, the Vdβ/F following oral administration was 40-80 L/kg. […] The highest mean Cmax observed was in the wall of the GI tract and occurred approximately 1 hour post-dose. […] A large tissue compartment of rifalazil is considered important for efficacy against Chlamydia given the intracellular nature of Chlamydia infection.

Structure (SMILES): CO[C@H]1/C=C/O[C@@]2(C)Oc3c(C)c(O)c4c(=O)c(c5oc6cc(N7CCN(CC(C)C)CC7)cc(O)c6nc-5c4c3C2=O)NC(=O)/C(C)=C\C=C\[C@H](C)[C@H](O)[C@@H](C)[C@@H](O)[C@@H](C)[C@H](OC(C)=O)[C@@H]1C [rifalazil, 3′-hydroxy-5′-(4-isobutyl-1-piperazinyl) benzoxazinorifamycin]
- time of highest mean Cmax, wall of the GI tract: approximately 1 hour
